Laboratory results from patent EP0497303B1, “Carbamic acid derivatives and method for preparing the same” (KYORIN PHARMACEUTICAL CO., LTD., priority 1991, dated 1992).
At least one compound was matched to its structure with a doubt left.

Test system: amnesia induced by exposure to carbon dioxide gas
Assay: Action against amnesia induced by exposure to carbon dioxide gas (step-through passive avoidance)
Format: in vivo, Std: ddy strain male mice
Conditions: summary in words of Table 1
Excerpt: The apparatus used was a passive avoidance apparatus of a step-through type (made by O'Hara Co., Ltd.). In the aquisition trial, each mouse was placed in the light compartment, a guillotine door of partition thereof was opened after 10 seconds, the guillotine door was closed as soon as the mouse moved into the dark compartment and an electric shock of 33 - 50 v was given for 1 second through the metal grid bars of the floor. Immediately after the electric shock was given, the mouse was taken out and was accommodated in a container having volume of ca. 300 ml filled with carbon dioxide gas. After immediately exposed to carbon dioxide gas having flow rate of ca. 5 liter/min. for 25 - 45 seconds, the mouse was taken out and was reanimated by artificial breathing. The retention trial was carried out after 24 hours. In the retention trial, the mouse was again placed in the light compartment, the time till the movement to the dark compartment was measured as a reaction latency until maximum 300 seconds and the mouse showing latency beyond it was deemed as 300 seconds. In addition, immediately after aquisition trial, a group not to exposed to carbon dioxide gas (comparison group of non-amnesia) was also made. The mouse was grouped per 10 - 30, the subject medicament was orally administered immediately after exposed to carbon dioxide gas and one hour before the retention trial. […]

COC(=O)C1=C(C)NC(C)=C(C(=O)OCCN(C)Cc2ccccc2)C1c1cccc([N+](=O)[O-])c1 (stereo not shown) [Nicardipine]
improving activity to disturbance of memory: vitiated or not enough
